The experiment addresses T1, zinc finger protein 202, alt. transcript beta (ZNF202b), bait fragment amino acids 1-398 (human, UniProt P04386 1-147; O95125 1-398).
T1 construct: also called ZNF202beta; ZNF202 m1
Put plainly: yeast two-hybrid search, bait ZNF202 1-398. The text has this:
The new construct was selected directly in the yeast strain PNY200 for its ability to drive tryptophane synthesis (genotype of this strain: MATα trp1-901 leu2-3, 112 ura3-52 his3-200 ade2 gal4Δ gal80). In these yeast cells, the bait was produced as a C-terminal fusion protein with the DNA binding domain of the transcription factor Gal4 (amino acids 1 to 147). Prey libraries were transformed into the yeast strain BK100 (genotype of this strain: MATa trp1-901 leu2-3,112 ura3-52 his3-200 gal4Δ gal80 LYS2::GAL-HIS3 GAL2-ADE2 met2::GAL7-lacZ), and selected for the ability to drive leucine synthesis. In these yeast cells, each cDNA was expressed as a fusion protein with the transcription activation domain of the transcription factor Gal4 (amino acids 768 to 881) and a 9 amino acid hemagglutinin epitope tag. PNY200 cells (MATα mating type), expressing the bait, were then mated with BK100 cells (MATa mating type), expressing prey proteins from a prey library. The resulting diploid yeast cells expressing proteins interacting with the bait protein were selected for the ability to synthesize tryptophan, leucine, histidine, and adenine. […]

B1: novel protein PN1851, fragment residues 14-369 (other, not shown: small tags and cut ends)
chain: ANFNQSGNIADSSLSFTFTNSSNGPNLITTQTNSQALSQPIASSNVHDNFMNNEITASKIDDGNNSKPLSPGWTDQTAYNAFGITTGMFNTTTMDDVYNYLFDDEDTPPNPKKEQPEPEELLIVKLEEDSWGSESKLWEKDRGSVSGPEASRQRFRQFQYRDAAGPHEAFGQLWALCCRWLRPEIRLKEQILELLVLEQFLTILPREVQTWVQARHPESGEEAVALVEDWHRETRTAGQSGLELHTEETRPLKTGEEAQSFQLEPVDPWPEGQSQKKGVKNTCPDLPNHLNAEVAPQPLKESAVLTPRVPTLPKMGSVGDWEVTAESQEALGPGKHAEKELCKDPPGDDCGNSVCLGVPVSKPSNTSEKEQGPEFWGLSLINSGKRSTADYSLDNEPAQALTWRDSRAWEEQYQWDVEDMKVSGVHWGYEETKTFLAILSESPFSEKLRTCHQNRQVYRAIAEQLRARGF
notes: range 768-881
As for B1, the binding result is listed as “binds”.

For the origin of these results see US7297515 (MYRIAD GENETICS, dated 2007).
